From PMC11061751
No constants are given. Whether binding was seen depends on the method and setting. In cells and extracts the contact can be indirect. Some results given as binding are weak or reduced against the parent protein; the word gives no strength.

Sequences of proteins named here, by UniProt entry; tags and fusion partners are left off.
UniProt O60260: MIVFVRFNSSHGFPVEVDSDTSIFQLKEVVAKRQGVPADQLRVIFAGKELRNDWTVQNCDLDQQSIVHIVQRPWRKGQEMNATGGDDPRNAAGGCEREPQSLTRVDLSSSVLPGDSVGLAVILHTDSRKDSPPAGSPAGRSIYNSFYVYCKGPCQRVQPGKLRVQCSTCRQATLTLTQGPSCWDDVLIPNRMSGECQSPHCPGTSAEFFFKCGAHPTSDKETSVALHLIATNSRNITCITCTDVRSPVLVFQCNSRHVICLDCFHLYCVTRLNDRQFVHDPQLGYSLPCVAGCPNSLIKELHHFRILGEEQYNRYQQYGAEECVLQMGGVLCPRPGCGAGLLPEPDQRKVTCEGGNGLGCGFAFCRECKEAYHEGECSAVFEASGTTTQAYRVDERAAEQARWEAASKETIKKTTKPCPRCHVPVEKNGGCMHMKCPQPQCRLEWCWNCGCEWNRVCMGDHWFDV
UniProt Q86U44: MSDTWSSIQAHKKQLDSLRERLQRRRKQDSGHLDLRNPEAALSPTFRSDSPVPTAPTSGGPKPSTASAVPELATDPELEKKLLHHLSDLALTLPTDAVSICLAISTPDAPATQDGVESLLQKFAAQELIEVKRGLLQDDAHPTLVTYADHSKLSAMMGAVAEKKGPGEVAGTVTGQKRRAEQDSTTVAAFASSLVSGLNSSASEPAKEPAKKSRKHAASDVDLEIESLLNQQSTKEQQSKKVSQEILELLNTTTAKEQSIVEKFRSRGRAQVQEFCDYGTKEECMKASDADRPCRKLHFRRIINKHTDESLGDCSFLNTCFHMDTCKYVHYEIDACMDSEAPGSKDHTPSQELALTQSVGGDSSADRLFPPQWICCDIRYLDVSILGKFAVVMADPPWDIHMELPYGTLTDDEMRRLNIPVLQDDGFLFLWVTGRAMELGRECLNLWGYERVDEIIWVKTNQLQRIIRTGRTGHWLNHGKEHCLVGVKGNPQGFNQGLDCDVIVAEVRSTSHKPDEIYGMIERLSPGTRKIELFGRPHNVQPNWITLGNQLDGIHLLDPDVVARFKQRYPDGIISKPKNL

Biological target: Flag-PRKN (UniProt O60260)
Assay: co-IP; HEK293 cells transfected with Flag-PRKN and Myc-METTL3 for 48 h; lysates in IP lysis buffer (10 mM Tris, 1% NP-40, 2 mM EDTA, 150 mM NaCl, pH 7.5) immunoprecipitated with anti-Flag (IgG as control), 4 °C overnight, protein A/G beads; Western blotting

Myc-METTL3 (from UniProt Q86U44 1-580) (enzyme)
binding: binds
